# Target: récepteur de la PCP
# Experiment: Competition binding at the (3H)TCP sites on rat brain homogenates (Example 36)
# Details: 1 nM (3H)TCP, 30 min at 25°C
# Text: Exemple 36 : Affinité des composés pour les sites de liaison de la (³H)TCP sur les homogénats de cerveaux de rats.
# Dans cet essai on mesure les affinités des composés pour le récepteur de la PCP par des expériences de compétition sur des homogénats de cerveaux de rats. Le ligand radioactif utilisé est la (³H)TCP à une activité spécifique de 62 Ci/mmol (Service des Molécules Marquées, CEA Saclay France).
# Les cerveaux de rats (sans le cervelet et le tronc cérébral) sont homogénéisés à l'ultra turax dans 20 volumes de tampon Hepes-Tris 50 mM, pH 7,7. Après centrifugation pendant 30 min à 15000 g le culot est repris dans le même volume de tampon et recentrifugé dans les mêmes conditions. Le culot final est repris dans du tampon Hepes-Tris 50 mM, pH 7,7 de façon à obtenir une concentration en protéine de 6 à 8 mg/ml.
# Les expériences de compétition sont réalisées en incubant pendant 30 min les membranes (concentration finale en protéine : 0,6 à 0,8 mg/ml) en milieu tampon 5 mM Hepes-Tris, pH 7,7 à 25°C, en présence d'une concentration fixe de ligand tritié (1 nM)et de concentrations croissantes de composés à tester. Trois échantillons de 600 µL sont ensuite filtrés sur filtres de fibres de verre GF/B prétraités par du PEI (polyéthylénimine) à 0,1%. […]
structure (smiles),measurement,value
"O=C(CCCN1CCC(O)(c2ccc(Cl)cc2)CC1)c1ccc(F)cc1 [Halopéridol, reference compound]",IC50,520 µM
